# Data reported in PMC5467387.
# Amino acid sequences for entries named in this document (tags omitted).
# UniProt Q04206: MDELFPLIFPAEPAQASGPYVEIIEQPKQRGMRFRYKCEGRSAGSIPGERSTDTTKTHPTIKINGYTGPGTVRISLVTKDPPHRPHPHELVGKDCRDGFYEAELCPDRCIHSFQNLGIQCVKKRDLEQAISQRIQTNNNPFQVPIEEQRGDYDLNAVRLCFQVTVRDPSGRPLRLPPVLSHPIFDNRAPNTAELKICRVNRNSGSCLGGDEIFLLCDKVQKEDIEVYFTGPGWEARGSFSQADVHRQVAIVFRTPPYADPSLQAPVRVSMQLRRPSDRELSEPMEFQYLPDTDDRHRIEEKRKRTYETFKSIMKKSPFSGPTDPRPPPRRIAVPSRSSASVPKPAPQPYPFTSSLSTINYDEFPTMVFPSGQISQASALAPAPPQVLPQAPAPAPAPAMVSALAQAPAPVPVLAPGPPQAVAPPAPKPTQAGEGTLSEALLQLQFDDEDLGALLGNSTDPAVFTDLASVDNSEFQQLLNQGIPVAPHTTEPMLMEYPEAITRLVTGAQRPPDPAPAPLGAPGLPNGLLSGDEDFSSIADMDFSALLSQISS
# No constants are given. Whether binding was seen depends on the method and setting. Binding seen in cells or lysates may run through a third protein. Some entries that bind do so weakly or less than the wild type.
# Target: T1, Lipopolysaccharide-binding protein (human (endogenous in A549)) (UniProt P18428)
# T1 sequence: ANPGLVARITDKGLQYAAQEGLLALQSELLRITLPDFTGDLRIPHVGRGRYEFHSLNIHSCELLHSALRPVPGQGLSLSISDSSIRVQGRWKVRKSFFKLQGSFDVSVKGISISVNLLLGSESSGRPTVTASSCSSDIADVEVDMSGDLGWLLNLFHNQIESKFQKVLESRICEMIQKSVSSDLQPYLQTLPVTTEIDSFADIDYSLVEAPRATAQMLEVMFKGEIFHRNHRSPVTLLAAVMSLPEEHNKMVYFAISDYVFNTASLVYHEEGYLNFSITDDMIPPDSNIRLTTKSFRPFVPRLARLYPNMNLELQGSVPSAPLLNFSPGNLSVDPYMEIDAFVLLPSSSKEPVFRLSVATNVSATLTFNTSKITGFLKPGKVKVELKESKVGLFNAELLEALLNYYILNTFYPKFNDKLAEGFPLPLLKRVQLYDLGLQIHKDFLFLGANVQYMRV
# Experiment: co-IP; 3 ug anti-LBP antibody (ab169776) added to 500 ug extracted A549 proteins, 4°C 60 min, Magnetic Protein G Beads 4°C overnight, four PBS washes; blots for phospho-p38 MAPK and phospho-p65; rabbit IgG and no antibody as controls; cells untreated (control) or treated with LPS 10 ug/mL (lysed 1 h after), with or without LBP plasmid, LBP shRNA plasmid, SB203580 or SC-514
substance,measurement,value
phospho-p65 (from UniProt Q04206 1-551),binding,binds weakly
